In US20250051391A1, “PEPTIDE INHIBITORS AND METHODS FOR INHIBITING PROTEIN AGGREGATION IN NEURONS AND NEURODEGENERATIVE DISEASES” (THE GOVERNING COUNCIL OF THE UNIVERSITY OF TORONTO, priority 2021, published 2025):
Results are given in words; binding and its absence hold for the method and conditions named. Binding seen in cells or lysates may run through a third protein. Some entries that bind do so weakly or less than the wild type. Tags and fused reporters may be left off the sequences shown.

Sequences of proteins named here, by UniProt entry; tags and fusion partners are left off.
UniProt Q9UQN3: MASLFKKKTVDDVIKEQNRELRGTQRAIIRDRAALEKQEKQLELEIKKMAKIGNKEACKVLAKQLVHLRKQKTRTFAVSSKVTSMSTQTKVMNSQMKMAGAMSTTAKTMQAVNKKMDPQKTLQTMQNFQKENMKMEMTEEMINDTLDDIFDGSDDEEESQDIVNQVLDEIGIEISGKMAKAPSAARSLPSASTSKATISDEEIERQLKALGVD

What was measured:
Flag-CHMP2B [1] = target: T1, Flag-CHMP2B (Homo sapiens, UniProt Q9UQN3); test: co-immunoprecipitation, Flag-CHMP2B and GFP-peptides (FIG. 1D)
Flag-CHMP2B [2] = target: T1, Flag-CHMP2B; test: co-immunoprecipitation in cells (FIG. 1D)

Binder | binding (Flag-CHMP2B [1]) | binding (Flag-CHMP2B [2])
IPIQLKA (peptide, not shown: large carriers) [GFP-tagged PDpep1 peptide] | binds | 
DEEIERQLKALG (peptide, not shown: large carriers) [GFP-tagged PDpep1.3 peptide] | binds | binds
